Reference: paper PMC4260750
No constants are given. Whether binding was seen depends on the method and setting. Binding seen in cells or lysates may run through a third protein. A result given as binding can be weak or reduced; the word gives no strength.

By UniProt entry, the sequences of proteins in these tests, tags left out. Where a name states a change or a piece, a line headed by the entry shows the natural chain unless it says otherwise.
UniProt O35598: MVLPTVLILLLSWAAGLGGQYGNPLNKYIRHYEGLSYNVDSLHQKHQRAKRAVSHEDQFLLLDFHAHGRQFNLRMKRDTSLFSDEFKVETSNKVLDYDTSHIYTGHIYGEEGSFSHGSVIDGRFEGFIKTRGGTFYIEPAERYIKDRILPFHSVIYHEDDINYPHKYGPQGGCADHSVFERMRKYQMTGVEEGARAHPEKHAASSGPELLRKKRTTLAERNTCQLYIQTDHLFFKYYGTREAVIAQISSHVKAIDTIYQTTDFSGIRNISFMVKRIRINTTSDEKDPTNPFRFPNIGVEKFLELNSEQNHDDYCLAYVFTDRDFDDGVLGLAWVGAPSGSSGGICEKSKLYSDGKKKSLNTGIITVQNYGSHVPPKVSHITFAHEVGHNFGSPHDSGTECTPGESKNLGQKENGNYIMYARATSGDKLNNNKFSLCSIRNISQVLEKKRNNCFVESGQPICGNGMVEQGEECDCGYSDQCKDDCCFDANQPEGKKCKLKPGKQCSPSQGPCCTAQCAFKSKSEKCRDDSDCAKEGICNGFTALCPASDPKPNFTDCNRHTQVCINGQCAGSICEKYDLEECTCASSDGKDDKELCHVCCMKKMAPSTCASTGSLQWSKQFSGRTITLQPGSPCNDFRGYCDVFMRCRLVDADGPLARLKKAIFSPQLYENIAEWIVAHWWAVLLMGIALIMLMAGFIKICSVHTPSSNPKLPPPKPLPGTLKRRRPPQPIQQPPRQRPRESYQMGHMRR
UniProt Q10743: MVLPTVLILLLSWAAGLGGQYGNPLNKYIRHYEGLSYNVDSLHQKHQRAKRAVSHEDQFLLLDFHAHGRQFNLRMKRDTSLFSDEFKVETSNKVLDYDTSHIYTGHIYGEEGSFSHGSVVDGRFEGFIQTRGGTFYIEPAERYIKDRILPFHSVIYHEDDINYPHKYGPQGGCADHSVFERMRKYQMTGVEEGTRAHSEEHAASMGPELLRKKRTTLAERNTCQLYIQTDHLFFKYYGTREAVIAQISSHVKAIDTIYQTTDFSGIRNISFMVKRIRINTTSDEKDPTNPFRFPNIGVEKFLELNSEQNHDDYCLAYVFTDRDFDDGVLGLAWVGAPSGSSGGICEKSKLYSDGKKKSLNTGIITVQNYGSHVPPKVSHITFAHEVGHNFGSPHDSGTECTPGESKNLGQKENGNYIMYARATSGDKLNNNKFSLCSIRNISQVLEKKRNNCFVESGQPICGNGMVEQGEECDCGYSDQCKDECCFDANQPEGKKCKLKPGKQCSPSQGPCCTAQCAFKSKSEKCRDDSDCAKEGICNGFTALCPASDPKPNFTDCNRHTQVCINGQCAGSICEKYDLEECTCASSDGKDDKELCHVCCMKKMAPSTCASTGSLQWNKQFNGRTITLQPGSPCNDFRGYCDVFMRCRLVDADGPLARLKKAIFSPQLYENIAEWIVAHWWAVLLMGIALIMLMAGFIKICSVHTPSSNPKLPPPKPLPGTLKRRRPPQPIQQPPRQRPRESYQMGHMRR

Tests used:
GST-SAP97-S642A = GST-SAP97-S642A (UniProt Q62696); experiment: pull-down; GST fusion proteins on beads, phosphorylated or not by PKC in vitro, incubated 2 h with rat homogenate diluted in TBS; five washes with TBS and 0.1% Triton X-100; immunoblot; only the target purified
GST-SAP97-SH3 = GST-SAP97-SH3 (UniProt Q62696); experiment: as above
[1] = target: GST-SAP97-SH3 phosphorylated by PKC (UniProt Q62696); experiment: as above
GST-SAP97-T629A = GST-SAP97-T629A (UniProt Q62696); experiment: as above
GST-SAP97wt = GST-SAP97wt (UniProt Q62696); experiment: as above
ADAM10-Rluc = ADAM10-Rluc (UniProt O35598); experiment: FRET or BRET; BRET in living HEK293 cells; constant ADAM10-Rluc (donor), rising YFP-SAP97 (acceptor), saturation curve; also real-time BRET after PMA (PKC activator)

Measured: binding

ADAM10 (endogenous, rat brain) (from UniProt Q10743)
not listed: ADAM10-Rluc
binds: all other assays above

YFP-SAP97 (from UniProt Q62696 1-911)
binds: ADAM10-Rluc
